# Measured values from PubChem BioAssay AID2283220 (EPA ToxCast).
# The chains behind the UniProt entries cited, without tags or fusion partners. Where a name states a change or a piece, a line headed by the entry shows the natural chain unless it says otherwise.
# UniProt O00141: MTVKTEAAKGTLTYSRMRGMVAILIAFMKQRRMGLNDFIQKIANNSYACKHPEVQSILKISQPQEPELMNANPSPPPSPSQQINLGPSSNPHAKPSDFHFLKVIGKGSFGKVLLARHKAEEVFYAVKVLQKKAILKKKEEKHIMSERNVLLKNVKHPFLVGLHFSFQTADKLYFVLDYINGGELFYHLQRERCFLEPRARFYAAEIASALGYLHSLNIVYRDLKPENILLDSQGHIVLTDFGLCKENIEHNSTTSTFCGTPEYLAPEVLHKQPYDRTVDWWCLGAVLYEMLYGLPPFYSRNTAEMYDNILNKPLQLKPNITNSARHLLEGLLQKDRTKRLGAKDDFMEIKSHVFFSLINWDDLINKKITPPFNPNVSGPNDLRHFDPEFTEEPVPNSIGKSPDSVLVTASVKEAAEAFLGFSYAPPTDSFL
# The list shows a part of the results, in another mix than the full data. Results filed as inconclusive are left out. Activity calls are given as the source filed them. The calls were made as follows: active = hit-call score of the fitted dose curve at least 0.9, where 1 is the maximum; inconclusive = response in the unintended direction; inactive = score below 0.9.
# Molecular target: human Serum/Glucocorticoid Regulated Kinase 1 (SGK1), SGK1 (gene 6446) (UniProt O00141)
# Assay: NVS_ENZ_hSGK1: NovaScreen (NVS) Enzymatic Assay for human Serum/Glucocorticoid Regulated Kinase 1 (SGK1)
# Description: NVS_ENZ_hSGK1 is a biochemical, single-readout assay that uses extracted gene-proteins in a cell-free assay. Measurements were taken 1 hour after chemical dosing in a 96-well plate.NVS_ENZ_hSGK1 is one of one assay component(s) measured or calculated from the NVS_ENZ_hSGK1 assay. It is designed to make measurements of enzyme activity, a form of enzyme reporter, as detected with fluorescence intensity signals by Fluorescence and electrophoretic mobility shift technology.Data from the assay component NVS_ENZ_hSGK1 was analyzed into 1 assay endpoint. This assay endpoint, NVS_ENZ_hSGK1, was analyzed in the positive analysis fitting direction relative to DMSO as the negative control and baseline of activity. Using a type of enzyme reporter, loss-of-signal activity can be used to understand changes in the enzymatic activity as they relate to the gene SGK1. Furthermore, this assay endpoint can be referred to as a primary readout, because this assay has produced […] where this one serves a enzymatic activity function. To generalize the intended target to other relatable targets, this assay endpoint is annotated to the kinase intended target family, where the subfamily is serine/threonine kinase. […]
smiles,measurement,value
S=C(S)NCCNC(=S)S.[Mn+2].[S-]C([S-])=NCCN=C([S-])[S-].[Zn+2],AC50,active: 11.4 µM
